# Data published in the supplement of paper PMC10663445.
# “And” between values parts separate entries of the source, which are not always exact repeats. Equal entries are not always repeated. Structures can show the parent of a compound that is named as a salt. The list shows a part of the results. Repeats are few or missing, and single values can be far off.
# System: hsa-miR-132-3p
# Assay: miR-132-3p level in NGN2-iNs after compound treatment (TMM-normalised, ComBat batch-corrected) (batch-corrected normalised expression (arbitrary units)); higher = higher miR-132-3p expression
# Details: 10 µM; 24 h; human iPSC-derived NGN2 neurons (BR43)
row,SMILES,miR-132-3p level in NGN2-iNs
1,O=S(=O)(c1cccc2cnccc12)N1CCCNCC1 [Fasudil (HA-1077) HCl],0.202
2,COc1cc2nc(N3CCCN(C)CC3)nc(NC3CCN(Cc4ccccc4)CC3)c2cc1OC,-0.189
3,CC(NCCc1ccc(O)cc1)C(O)c1ccc(O)cc1 (stereo not given) [Ritodrine HCl],-1.16
4,CCCc1nn(C)c2c(=O)[nH]c(-c3cc(S(=O)(=O)N4CCN(C)CC4)ccc3OCC)nc12 [Sildenafil Citrate],0.56
5,CN(C[C@@H]1COCCO1)S(=O)(=O)Nc1ccc2ccc3ncc(-c4cnn(C)c4)cc3c(=O)c2c1,-0.868
6,CCOC(=O)CC(=O)N1CCSC1COc1ccccc1OC (stereo not given) [Moguisteine],-1.21
7,CC(=O)Oc1ccc(C(c2ccc(OC(C)=O)cc2)c2ccccn2)cc1 [Bisacodyl],-0.0212
8,O=C(CSc1nc2c(c(=O)n1-c1ccccc1)SCC2)Nc1ccc(-c2ccccc2)cn1,-0.433
9,Nc1ccc(C(=O)O)c(O)c1 [Sodium 4-Aminosalicylate],0.000548
10,O=C1O[C@H]([C@@H](O)CO)C(O)=C1O [Vitamin C],1.03
11,Cc1cccc(C)c1OCC(=O)N[C@@H](Cc1ccccc1)[C@@H](O)C[C@H](Cc1ccccc1)NC(=O)[C@H](C(C)C)N1CCCNC1=O [Lopinavir],-2.85
12,O=C(O)c1ccccc1Nc1cccc(C(F)(F)F)c1 [Flufenamic acid],0.0147
13,O=C(O)Cn1nnc(-c2cc(N3CCC(Oc4cc(F)ccc4Br)CC3)no2)n1,0.452
14,CCC(=O)O[C@]1(C(=O)SCF)[C@H](C)C[C@H]2[C@@H]3C[C@H](F)C4=CC(=O)C=C[C@]4(C)[C@@]3(F)[C@@H](O)C[C@@]21C [Fluticasone propionate],-0.379
15,CC(C)[C@H](O)C(=O)N[C@@H](C)C(=O)N[C@@H]1C(=O)N(C)CCc2ccccc21,0.0343
16,Cc1[nH]nc2ccc(-c3cncc(OC[C@@H](N)Cc4ccccc4)c3)cc12,-0.306
17,CCCCC(=O)N(Cc1ccc(-c2ccccc2-c2nnn[nH]2)cc1)[C@H](C(=O)O)C(C)C [Valsartan],-0.316
18,Cc1ccc(Nc2nccc(N(C)c3ccc4c(C)n(C)nc4c3)n2)cc1S(N)(=O)=O [Pazopanib],-1.08
19,"Nc1cc(C(F)(F)F)c(-c2cc(N3CCOCC3)nc(N3CCOCC3)n2)cn1 [Buparlisib (BKM120, NVP-BKM120)]",-0.232
20,"Cc1c(C(=O)Nc2ccc(N3C[C@@H](C)O[C@@H](C)C3)nc2)cccc1-c1ccc(OC(F)(F)F)cc1 [Sonidegib (Erismodegib, NVP-LDE225)]",-1.08
21,Cc1ccc(Sc2cncc3sc(C(N)=O)cc23)cc1,-0.151
22,COc1cccc(-c2cc(F)ccc2C2Cc3nc(N)nc(C)c3C(=O)N2)n1 (stereo not given),-0.573
23,O=c1cc(N2CCOCC2)oc2c(-c3ccccc3)cccc12,-2.85
24,O=C(Nc1ccccc1)N1CCN(c2nc(-c3ccccc3)ns2)CC1,-1.38
25,CCc1ccc(OCc2ccccc2C(=O)Nc2ccc3nc(C)cc(N)c3c2)cc1,-1.51

# An excerpt of these results, with bars between the fields:
row | SMILES | miR-132-3p level in NGN2-iNs
23 | O=c1cc(N2CCOCC2)oc2c(-c3ccccc3)cccc12 | -2.85
24 | O=C(Nc1ccccc1)N1CCN(c2nc(-c3ccccc3)ns2)CC1 | -1.38

# Later entries:

row,SMILES,miR-132-3p level in NGN2-iNs
1,CN(C)CCc1c[nH]c2ccc(CS(=O)(=O)N3CCCC3)cc12 [Almotriptan Malate],1.87
2,Cn1nc(C(C)(C)C)cc1C(=O)N[C@@H](Cc1cccc(Cl)c1)C(=O)NCC#N [Cathepsin Inhibitor 1],-1.44
3,CN(c1ncccc1CNc1nc(Nc2ccc3c(c2)CC(=O)N3)ncc1C(F)(F)F)S(C)(=O)=O,-0.784 and -0.832 and -1.44
4,COC(=O)/C=C/C(=O)OC [Dimethyl Fumarate],1.04
5,O=C(NC(Cc1cc(=O)[nH]c2ccccc12)C(=O)O)c1ccc(Cl)cc1 (stereo not given) [Rebamipide],0.656
6,CC1(C)C=C(CN2C/C(=C\c3ccc(F)cc3)C(=O)/C(=C/c3ccc(F)cc3)C2)C(C)(C)N1O,-0.22
7,NNC(=O)c1ccncc1 [Isoniazid],-0.437
8,O=C(O)CCCN1CCC(O[C@@H](c2ccc(Cl)cc2)c2ccccn2)CC1 [Bepotastine Besilate],-0.934
9,C[C@H]1C[C@H]2[C@@H]3CCC4=CC(=O)C=C[C@]4(C)[C@H]3C(=O)C[C@]2(C)[C@@]1(O)C(=O)CO [Meprednisone],-0.0182
10,Cc1ccc(S(=O)(=O)OCC(=O)Nc2ccc(C(=O)O)c(O)c2)cc1,-0.264
11,O=c1[nH]c(=O)n([C@H]2C[C@H](O)[C@@H](CO)O2)cc1I [Idoxuridine],-0.161
12,CN1CCN(c2ccc3nc(-c4c(N)c5c(F)cccc5[nH]c4=O)[nH]c3c2)CC1 [Dovitinib (TKI-258) Dilactic Acid],0.666
13,CN1CCN(c2ccc3nc(-c4c(N)c5c(F)cccc5[nH]c4=O)[nH]c3c2)CC1 [Dovitinib (TKI-258)],0.754
14,C=CCNC1=C2C[C@@H](C)C[C@H](OC)[C@H](O)[C@@H](C)/C=C(\C)[C@H](OC(N)=O)[C@@H](OC)/C=C\C=C(/C)C(=O)NC(=CC1=O)C2=O [Tanespimycin (17-AAG)],0.0559
15,Cc1cccc(N(C)C(=S)Oc2ccc3ccccc3c2)c1 [Tolnaftate],0.608
16,O=C(O)c1cccnc1 [Nicotinic Acid],-1.02
17,COc1ccc(-c2ccc3cc(C(=O)O)ccc3c2)cc1C12CC3CC(CC(C3)C1)C2 [Adapalene],-0.298
18,COc1ccc(-c2cc(=O)c3c(OC)c(OC)c(OC)c(OC)c3o2)cc1 [Tangeretin],1.07
19,CN1C(C(=O)Nc2ccccn2)=C(O)c2sc(Cl)cc2S1(=O)=O [Lornoxicam],-1.05
20,CC12CC3CC(C)(C1)CC(N)(C3)C2 [Memantine HCl],-0.00424
21,Cc1ccc(CNc2ncnc3ccc(-c4ccc(CO)o4)cc23)o1,1.68
22,O=C(Nc1cccnc1)N1CCC(Cc2cccc(Oc3ccc(C(F)(F)F)cn3)c2)CC1,0.503
23,CC(C)c1nc(CN(C)C(=O)N[C@@H](CCN2CCOCC2)C(=O)N[C@H](CC[C@H](Cc2ccccc2)NC(=O)OCc2cncs2)Cc2ccccc2)cs1 [Cobicistat (GS-9350)],-1.75
24,Cc1cccc(-c2nn3c(c2-c2ccnc4ccc(C(N)=O)cc24)CCC3)n1,-0.308
25,Cc1ccc(C(=O)Nc2cccc(C(F)(F)F)c2)cc1Nc1nc(-c2cccnc2)nc2c1cnn2C,-2.22
